Results reported in publication PMC4737497.
Results are given in words; binding and its absence hold for the method and conditions named. Binding seen in cells or lysates may run through a third protein. Some binding calls cover weakened binding; strength is not graded here.

Protein sequences, listed by entry. Tags and fused reporters are not part of them.
UniProt Q9UKB1: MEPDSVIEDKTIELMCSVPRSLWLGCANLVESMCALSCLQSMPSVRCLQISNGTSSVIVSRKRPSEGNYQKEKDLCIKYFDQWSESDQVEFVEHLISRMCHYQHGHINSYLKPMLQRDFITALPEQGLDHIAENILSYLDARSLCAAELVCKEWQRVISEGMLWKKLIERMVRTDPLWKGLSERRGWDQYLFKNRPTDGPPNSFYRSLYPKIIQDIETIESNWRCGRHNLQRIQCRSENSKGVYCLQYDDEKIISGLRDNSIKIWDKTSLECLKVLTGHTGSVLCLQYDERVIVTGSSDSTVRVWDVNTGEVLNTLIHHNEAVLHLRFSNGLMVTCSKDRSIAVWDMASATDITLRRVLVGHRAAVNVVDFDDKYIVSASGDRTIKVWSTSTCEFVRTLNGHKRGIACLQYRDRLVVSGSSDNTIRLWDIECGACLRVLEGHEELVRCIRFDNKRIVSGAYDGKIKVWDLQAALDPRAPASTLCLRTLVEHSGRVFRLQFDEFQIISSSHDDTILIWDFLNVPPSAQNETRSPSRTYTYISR
UniProt P21698: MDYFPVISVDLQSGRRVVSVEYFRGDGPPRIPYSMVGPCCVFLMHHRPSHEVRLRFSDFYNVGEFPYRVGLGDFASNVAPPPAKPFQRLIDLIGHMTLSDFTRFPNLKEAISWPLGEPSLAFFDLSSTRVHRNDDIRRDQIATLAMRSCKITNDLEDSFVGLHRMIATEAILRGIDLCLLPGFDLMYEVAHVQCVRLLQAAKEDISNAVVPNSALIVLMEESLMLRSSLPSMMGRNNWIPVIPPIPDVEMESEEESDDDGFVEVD

Molecular target: HA-tagged FBXW11 (pcDNA3-HA-FBXW11) (UniProt Q9UKB1)
Experiment: co-IP

## NSs protein of Rift Valley fever virus with a C-terminal V5 tag, expressed from recombinant MP-12 virus (rMP-12-NSs-V5) (from UniProt P21698 1-265)
  binding: binds
